Most values lie at the floor of the assay. Slopes are relative: functional sequences can read slightly below zero.
These substances were tested on Saccharomyces cerevisiae PS128 hsf1 delta, HSF1(1-493) fusion (assay: growth estimate (transactivation domain function in HSF1 fusion, heat-shock survival) (a.u. (slope of normalised read count over time)); higher = stronger growth at 37°C, i.e. more transactivation activity). Conditions: library: random library.
YRGRSYVRRSALIRMRLKAP was tested, and the growth estimate was < -0.25.
With YRGRTPRGE the growth estimate was < -0.25.
In the case of YRHTYQTVCRATVGSGHATG, the growth estimate is reported as < -0.25.
For YRIFGSTRKDEHSRGGMRPW, the growth estimate was < -0.25.
With YRIGKLLVVQ the growth estimate was < -0.25.
With YRIGVCIVRLESAATDYRLG the growth estimate was < -0.25.
With YRISTVSALGVSK the growth estimate was < -0.25.
YRIWDRDWDSSRDLMKHDHS was tested, and the growth estimate was < -0.25.
YRL was tested, and the growth estimate was < -0.25.
YRLDSYPCWLELCSQRLSST was tested, and the growth estimate was < -0.25.
In the case of YRLGHFL, the growth estimate is reported as < -0.25.
YRLNWAFNRLLSRDIYTLTS was tested, and the growth estimate was < -0.25.
YRMKCHGRDLHHSSY was tested, and the growth estimate was < -0.25.
YRNTTRLTVRMNYVVHDRHI was tested, and the growth estimate was < -0.25.
YRPKMWPAYT was tested, and the growth estimate was < -0.25.
YRPYAARSIYAGMGTVMGCT was tested, and the growth estimate was < -0.25.
YRSGLCL was tested, and the growth estimate was < -0.25.
YRSGSRSGQAYLLRIISAKA was tested, and the growth estimate was < -0.25.
With YRSRSDGAAIAFSMG the growth estimate was < -0.25.
With YRSYVIVYLCL the growth estimate was < -0.25.
In the case of YRVGIWKQSHVEGLSW, the growth estimate is reported as < -0.25.
YRVIWCHAGFRTLPRVNVVC was tested, and the growth estimate was < -0.25.
In the case of YRYAWGSTARISSL, the growth estimate is reported as < -0.25.
In the case of YSAPAERTWVRRQMSR, the growth estimate is reported as < -0.25.
In the case of YSAPFLRPGT, the growth estimate is reported as < -0.25.
YSCN was tested, and the growth estimate was < -0.25.
YSDNRVFKYSDDGTV was tested, and the growth estimate was < -0.25.
YSETLAGGGWMSSFRAKLPK was tested, and the growth estimate was < -0.25.
In the case of YSFTLPYAL, the growth estimate is reported as 5.9.
YSFYWRIGLR was tested, and the growth estimate was -0.246.
YSGHLGSHNTQRAGNKS was tested, and the growth estimate was < -0.25.
With YSGILRKES the growth estimate was < -0.25.
In the case of YSGNDHRARRVSPIN, the growth estimate is reported as < -0.25.
In the case of YSGPLRIQQIIPL, the growth estimate is reported as < -0.25.
Substance YSHRVGSVLGPGALHMADTW has a growth estimate of -0.172.
With YSIFCWYTSVLSLSRDLVSC the growth estimate was -0.245.
For YSIISGY, the growth estimate was < -0.25.
YSKCDPGLCHLSSSEQLRVE was tested, and the growth estimate was < -0.25.
YSLGCLH was tested, and the growth estimate was < -0.25.
With YSLLDRCPPCDQVPVAGARS the growth estimate was < -0.25.
With YSLR the growth estimate was < -0.25.
In the case of YSMQAKTFSCLFTYNG, the growth estimate is reported as < -0.25.
YSPGENVS was tested, and the growth estimate was < -0.25.
YSPQIIYKGLDPESQR was tested, and the growth estimate was < -0.25.
With YSPVMDR the growth estimate was < -0.25.
YSQEIQGWIVVV was tested, and the growth estimate was < -0.25.
YSQVGSYGLCNSQIHFPCLL was tested, and the growth estimate was < -0.25.
With YSRADWI the growth estimate was < -0.25.
With YSRRKGSVGDRHIYAVATDK the growth estimate was < -0.25.
For YSS, the growth estimate was < -0.25.
In the case of YSSDKATSGMSRLDYRARQQ, the growth estimate is reported as < -0.25.
For YSSTT, the growth estimate was < -0.25.
In the case of YSTRSRLGPIRPIVRG, the growth estimate is reported as < -0.25.
YSVEDPGRRPVAGQQLASLV was tested, and the growth estimate was < -0.25.
With YSVFCPLGCVIPPGMCLFDF the growth estimate was < -0.25.
YSVIWQVFAARVRVYVG was tested, and the growth estimate was < -0.25.
With YSYL the growth estimate was < -0.25.
In the case of YTADEGP, the growth estimate is reported as < -0.25.
YTATADRATP was tested, and the growth estimate was -0.228.
In the case of YTDSGHQLISLGARGCELTI, the growth estimate is reported as < -0.25.
For YTECAYYGVHPYATSAVNT, the growth estimate was < -0.25.
YTGGVVKGRLFYGMKIG gave a growth estimate of -0.235.
In the case of YTIRARVDNRLTHFVFAVPL, the growth estimate is reported as < -0.25.
With YTP the growth estimate was < -0.25.
For YTPE, the growth estimate was < -0.25.
With YTRCYLQHY the growth estimate was < -0.25.
YTRRVSGGCKTFSVSRVGPR was tested, and the growth estimate was < -0.25.
With YTS the growth estimate was < -0.25.
In the case of YTVRALEEVSAWRGFGKS, the growth estimate is reported as < -0.25.
With YTYAREFPGPAGRRRVPMCR the growth estimate was < -0.25.
In the case of YVASKVLGC, the growth estimate is reported as < -0.25.
Work on YVDLEDVISRDGLSLFSELG yielded a growth estimate of 2.44.
Work on YVGILSGSHRWVTVGQVELQ yielded a growth estimate of -0.246.
With YVGIRGVGAYRCGALHAGNH the growth estimate was < -0.25.
In the case of YVGLSLLGVLGIFWRCEPPY, the growth estimate is reported as < -0.25.
In the case of YVGMVKPQADSKPVVHLSTS, the growth estimate is reported as < -0.25.
In the case of YVGSRLGYLGWRAGY, the growth estimate is reported as < -0.25.
For YVGWE, the growth estimate was < -0.25.
YVIDGAIVKGLRRTER was tested, and the growth estimate was < -0.25.
In the case of YVLVCLGTASPV, the growth estimate is reported as < -0.25.
For YVPDRAD, the growth estimate was < -0.25.
Work on YVPMTHHGLGASVRKGKRYA yielded a growth estimate of -0.246.
In the case of YVRKQRTVLGGVAWAFAH, the growth estimate is reported as < -0.25.
In the case of YVRKSGRSPRFG, the growth estimate is reported as < -0.25.
For YVSGRVILSENLESGSSIDG, the growth estimate was < -0.25.
YVTGYIRGRGTHV was tested, and the growth estimate was < -0.25.
YVVAGLTESNERNLSFRSPS was tested, and the growth estimate was < -0.25.
Substance YVVPLGVFTFIQIAI has a growth estimate of -0.243.
In the case of YVVVSCLVQHAVRFGGVLCA, the growth estimate is reported as < -0.25.
YVVVSKFS was tested, and the growth estimate was < -0.25.
With YVWIHC the growth estimate was < -0.25.
With YVWLGRFEGIRE the growth estimate was < -0.253.
YVWLTRPIA was tested, and the growth estimate was < -0.25.
With YVYL the growth estimate was < -0.25.
In the case of YVYR, the growth estimate is reported as < -0.25.
YWDIIRNRIRLRT was tested, and the growth estimate was < -0.25.
For YWFLLPGALRCFLLAVQLSQ, the growth estimate was < -0.25.
In the case of YWGKRAVDWPCEL, the growth estimate is reported as < -0.25.
For YWIRIKLGHLRLRANSSQNT, the growth estimate was < -0.25.
YWLGI was tested, and the growth estimate was < -0.25.
In the case of YWS, the growth estimate is reported as < -0.25.
In the case of YYAVVLTRSCSR, the growth estimate is reported as < -0.25.
